Measured data: PubChem BioAssay AID1053208 (Peter MacCallum Cancer Centre, 2014)

- Screen: 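Synthetic lethal interactions between gene loss and doxorubicin in osteosarcoma cells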 (primary screen)
- System: mouse osteosarcoma cells, early-passage culture from an engineered mouse model of fibroblastic bone tumour
- Reagents: siRNA pool against mouse genes, 40 nM
- Duration: about 120 h (48 h before drug, then 72 h with drug)
- Conditions: doxorubicin 100 nM for 72 h, roughly 30-40% inhibitory dose
- Read-out: 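Luminescent ATP signal taken as viability with or without 100 nM doxorubicin for 72 h; mean of two wells set against non-targeting siRNA and turned into robust z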
- Direction: viability z-score with doxorubicin: higher = more viable cells under doxorubicin; viability z-score without drug: higher = more viable cells with knock-down alone
- Rule for the call: 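Called active if knock-down leaves viability unchanged without drug (z within -2 to 2) but lowers it with doxorubicin (z at or under -2)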
The deposit covers about 17,000 reagents; this is an unselected part. 788 of them (4.7%) were called active. 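Calls rest on z-score classes alone; an extra cut-off of viability at most 70% of control was not applied to them.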 Not all columns of the deposit are shown.

The first 5 records, ahead of the listing:
gene | combined z-score class | viability z-score with doxorubicin | viability z-score without drug | outcome
Hnrnpm (heterogeneous nuclear ribonucleoprotein M) | no change with or without drug | 1.35 | 0.34 | inactive
Btbd10 (BTB domain containing 10) | no change with or without drug | 0.67 | -0.17 | inactive
Perm1 (PPARGC1 and ESRR induced regulator, muscle 1) | low cell count with doxorubicin only | -3.82 | -1.18 | active
Egr1 (early growth response 1) | no change with or without drug | 0.11 | 0.51 | inactive
Spata2l (spermatogenesis associated 2-like) | no change with or without drug | 0.56 | 0 | inactive

The list itself, from the start:
gene | combined z-score class | viability z-score with doxorubicin | viability z-score without drug | outcome
Hnrnpm (heterogeneous nuclear ribonucleoprotein M) | no change with or without drug | 1.35 | 0.34 | inactive
Btbd10 (BTB domain containing 10) | no change with or without drug | 0.67 | -0.17 | inactive
Perm1 (PPARGC1 and ESRR induced regulator, muscle 1) | low cell count with doxorubicin only | -3.82 | -1.18 | active
Egr1 (early growth response 1) | no change with or without drug | 0.11 | 0.51 | inactive
Spata2l (spermatogenesis associated 2-like) | no change with or without drug | 0.56 | 0 | inactive
Hook2 (hook microtubule tethering protein 2) | no change with or without drug | -0.45 | 0.17 | inactive
Csn1s1 (casein alpha s1) | no change with or without drug | -0.45 | -0.51 | inactive
Fcgbpl1 (Fc fragment of IgG binding protein like 1) | no change with or without drug | 1.69 | 1.18 | inactive
Amotl2 (angiomotin-like 2) | no change with or without drug | 0.56 | -0.34 | inactive
Zp2 (zona pellucida glycoprotein 2) | no change with or without drug | 0 | -0.51 | inactive
Tmc2 (transmembrane channel-like gene family 2) | low cell count with doxorubicin only | -2.14 | -1.18 | active
Pcyt1b (phosphate cytidylyltransferase 1, choline, beta isoform) | no change with or without drug | 0.9 | 1.18 | inactive
Gja1 (gap junction protein, alpha 1) | no change with or without drug | -0.22 | -0.34 | inactive
Sox9 (SRY (sex determining region Y)-box 9) | no change with or without drug | -0.34 | -1.52 | inactive
Bcap29 (B cell receptor associated protein 29) | no change with or without drug | -0.67 | -0.84 | inactive
Kdg4 (alpha-ketoglutarate dehydrogenase subunit 4) | no change with or without drug | 1.12 | -0.84 | inactive
Or8k38 (olfactory receptor family 8 subfamily K member 38) | no change with or without drug | 0.56 | -0.51 | inactive
Zmat1 (zinc finger, matrin type 1) | no change with or without drug | 0.45 | 0.34 | inactive
Il17a (interleukin 17A) | high cell count with and without drug | 3.04 | 2.19 | inactive
Mrgpra6 (MAS-related GPR, member A6) | no change with or without drug | 0 | 0 | inactive
Mms22l (MMS22-like, DNA repair protein) | no change with or without drug | 1.12 | 1.35 | inactive
Msn (moesin) | no change with or without drug | 0.45 | -1.18 | inactive
Scart1 (scavenger receptor family member expressed on T cells 1) | no change with or without drug | -1.35 | 1.35 | inactive
Anapc13 (anaphase promoting complex subunit 13) | no change with or without drug | -0.79 | -0.84 | inactive
Chmp7 (charged multivesicular body protein 7) | no change with or without drug | -0.67 | 0.67 | inactive
Slc5a4b | low cell count with doxorubicin only | -2.14 | -0.17 | active
Atp4b (ATPase, H+/K+ exchanging, beta polypeptide) | no change with or without drug | 0.22 | 0.84 | inactive
Nrarp (Notch-regulated ankyrin repeat protein) | low cell count without drug only | -1.57 | -2.19 | inactive
Gm10283 (predicted gene 10283) | no change with or without drug | -1.12 | -0.67 | inactive
Cyp3a25 (cytochrome P450, family 3, subfamily a, polypeptide 25) | no change with or without drug | 0.34 | 1.85 | inactive
Aadacl2fm1 (AADACL2 family member 1) | no change with or without drug | -0.9 | 0.84 | inactive
Sars2 (seryl-aminoacyl-tRNA synthetase 2) | no change with or without drug | 0.67 | 0.51 | inactive
Gar1 (GAR1 ribonucleoprotein) | low cell count without drug only | -0.11 | -2.36 | inactive
Dhx16 (DEAH-box helicase 16) | no change with or without drug | 1.57 | -1.18 | inactive
1700029F12Rik (RIKEN cDNA 1700029F12 gene) | no change with or without drug | 0.67 | -1.18 | inactive
Cd24a (CD24a antigen) | no change with or without drug | -0.56 | 0.67 | inactive
A530053G22Rik (RIKEN cDNA A530053G22 gene) | no change with or without drug | 0.9 | -1.18 | inactive
Prss28 (serine protease 28) | no change with or without drug | -0.67 | 0 | inactive
S100a1 (S100 calcium binding protein A1) | no change with or without drug | 0.34 | 0.17 | inactive
Acvr2b (activin receptor IIB) | no change with or without drug | -0.11 | 0.84 | inactive
Fgfbp1 (fibroblast growth factor binding protein 1) | no change with or without drug | 0.22 | -0.51 | inactive
Cd8b1 (CD8 subunit beta 1) | no change with or without drug | -1.01 | -1.18 | inactive
Gabra3 (gamma-aminobutyric acid type A receptor subunit alpha 3) | no change with or without drug | 0.11 | -1.52 | inactive
Hoxb1 (homeobox B1) | no change with or without drug | -0.45 | -1.52 | inactive
Syt6 (synaptotagmin VI) | no change with or without drug | -1.8 | -1.18 | inactive
Dnajc27 (DnaJ heat shock protein family (Hsp40) member C27) | no change with or without drug | -0.11 | -0.17 | inactive
Lce1d (late cornified envelope 1D) | high cell count with doxorubicin only | 2.25 | 1.52 | inactive
Or8b4 (olfactory receptor family 8 subfamily B member 4) | no change with or without drug | 0.22 | 0.84 | inactive
Gtse1 (G two S phase expressed protein 1) | no change with or without drug | 0.22 | 0.17 | inactive
Atrx (ATRX, chromatin remodeler) | no change with or without drug | -0.67 | 0.17 | inactive
